PubChem BioAssay AID652259 – Drosophila RNAi Screening Center, 2013
Purpose: 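Identify new Wingless signalling regulators in fly cells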 (primary screen). Cell system: Drosophila clone 8 imaginal disc epithelial cells. Reagent: long dsRNA against Drosophila genes. Challenge: pathway stimulated by co-transfected Wingless expression plasmid. Detection: 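Dual luciferase reads per well after Wingless plasmid stimulation: reporter firefly light and Renilla control light; activity is firefly divided by Renilla, a ratio not deposited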. Reading the numbers: firefly reporter light: higher = more Wg reporter light, before normalisation; Renilla control light: higher = more transfected or surviving cells. Call rule: 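a knock-down is a candidate when at least two out of four statistical tests show it departing from its plate mean; one test alone signals a weak candidate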. Calls: active = candidate regulator (raises or lowers reporter); inactive = not a candidate.
In all, the deposit lists about 22,000 reagents; shown is an unselected part of those with a known target gene and a result. Over the whole deposit, 233 (1.1%) are marked active. 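Light values are raw, unnormalised plate reads; the ratio scores behind the reporter calls were not deposited.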 Unmarked entries are inactive. Reagents against one gene are numbered here. Names joined by + are all predicted targets of the reagent. No sequences are given here. Not given: the amount of reagent, the time to read-out, the dose of the treatment.

target	dsRNA no.	firefly reporter light, replicate 1	firefly reporter light, replicate 2	Renilla control light, replicate 1	Renilla control light, replicate 2
RabX1 (GeneID 44172)	1	2647	8833	653	2580
CG13380 + CG4174	1	4088		1496	
CG13380 + CG4174	2	5304		2681	
Cyp6a21 (GeneID 36665)	1	8544		3319	
CG34289 (GeneID 5740640)	1	4272		1968	
RpL31 (GeneID 35988)	1	4352	11123	955	2976
CG13585 (GeneID 37918)	1	3412	9872	1107	4129
shtd (GeneID 32473)	1	2732	7672	934	2305
CG32554 (GeneID 32767)	1	5.41e5	5.25e5	1.69e5	1.84e5
Hsdl2 (GeneID 43325)	1	2124	5424	1149	1834
Ugt304A1 (GeneID 53501)	1	15810		4471	
CG14635 (GeneID 31032)	1	24983		14547	
ttv (GeneID 36614)	1	15576		3651	
ACXC (GeneID 34689)	1	1781	7658	1029	3120
TrpRS-m (GeneID 39989)	1	3930		1445	
Rab32 (GeneID 35940)	1	16694		8586	
Rab32 (GeneID 35940)	2	10188		1302	
Ist1 (GeneID 38750)	1	3649		2225	
CG5934 (GeneID 43289)	1	5237		3824	
CG31928 (GeneID 326175)	1	12364		5821	
CG15445 (GeneID 33094)	1	1620	4876	585	1820
Rsbp15 (GeneID 41481)	1	9915		3460	
CG7166 (GeneID 40401)	1	15693		5634	
CG15909 (GeneID 35572)	1	3357	6000	530	1501
CG31473 (GeneID 318753)	1	20325		5707	
CG6168 (GeneID 39273)	1	5627		2537	
Pld (GeneID 35554)	1	10248		3485	
Mvk + CG33672 + spt4	1	19280		16048	
Mvk + CG33672 + spt4	2	7805		2290	
CG30281 (GeneID 246525)	1	11044		3865	
IP3K1 (GeneID 34300)	1	6843		5021	
Son (GeneID 41159)	1	9073		2131	
Glys (GeneID 41823)	1	5241		2475	
sbr (GeneID 43944)	1	29940		7389	
sbr (GeneID 43944)	2	21005		5852	
CG14629 (GeneID 31055)	1	16612		12116	
RpS14b (GeneID 47219)	1	18232		10508	
Hip1 (GeneID 39450)	1	4820		2320	
acs (GeneID 38264)	1	7050		2426	
CG13059 (GeneID 39803)	1	9261		3949	
lncRNA:noe (GeneID 43918)	1	7.85e5	8.79e5	3.18e5	3.79e5
CG15046 (GeneID 32833)	1	29544		13784	
PIG-X (GeneID 246580)	1	6.71e5	7.72e5	1.96e5	1.96e5
CG34109 (GeneID 4379890)	1	3659	6168	1120	3296
CG34109 (GeneID 4379890)	2	1930	6577	1008	2850
CG34109 (GeneID 4379890)	3	2869	6189	1088	3552
CG16952 (GeneID 32546)	1	13746		6825	
Cyp4d14 (GeneID 45706)	1	20797		15371	
CG3713 (GeneID 50365)	1	22811		20551	
CG32633 (GeneID 326225)	1	3701		682	
CG42795 (GeneID 41252)	1	3856		2249	
CG42795 (GeneID 41252)	2	12384		3236	
SdhB (GeneID 35590)	1	17508	7.74e5	5090	3.68e5
SdhB (GeneID 35590)	2	3.85e5	3.72e5	1.34e5	1.01e5
COX7AL2 (GeneID 5740746)	1	16442		10085	
Tie (GeneID 38559)	1	3020		1347	
Tie (GeneID 38559)	2	1859	6841	997	3120
CG10171 (GeneID 39501)	1	10274		3147	
CG10598 (GeneID 32713)	1	20997		10290	
Nepl6 (GeneID 33893)	1	2544		1276	
CG31870 (GeneID 318993)	1	7.92e5	7.60e5	3.98e5	4.20e5
CG6276 (GeneID 41855)	1	6368		2072	
Arl8 (GeneID 40961)	1	17069		4208	
mrn (GeneID 39688)	1	8353		966	
CG7236 (GeneID 33798)	1	1633	4345	786	1809
Dhc36C (GeneID 35061)	1	2020	7945	1328	3712
fzy (GeneID 34968)	1	2656	3136	594	880
CG33469 (GeneID 2768832)	1	5.33e5	5.47e5	2.25e5	1.41e5
CG5262 (GeneID 40258)	1	3904		1584	
CG11598 (GeneID 41554)	1	17584		6315	
CG6761 (GeneID 39134)	1	2905		1024	
CG3847 (GeneID 31577)	1	2813		1001	
CG3847 (GeneID 31577)	2	1624	4448	608	1719
